# Source: US8512311B2, “Augmentation of intraluminal microvessel formation to facilitate guide wire crossing in chronic total occlusions” (priority 2004, dated 2013)
# Test system: femoral artery CTO
# Assay: MR imaging of CTO with Gd-DTPA, distribution volume score
# Assay type: in vivo, rabbit
compound,measurement,setting,value
O=C([O-])CN(CCN(CC(=O)[O-])CC(=O)O)CCN(CC(=O)[O-])CC(=O)O.[Gd+3] [Gd-DTPA],distribution volume score (percentage of tissue volume occupied by the agent),"body of the CTO, 12 weeks",3%
same,distribution volume score (percentage of tissue volume occupied by the agent),"centre (body) of the CTO, 6 weeks",18%
same,distribution volume score (percentage of tissue volume occupied by the agent),"exit region of the CTO, 6 weeks",4%
same,distribution volume score (percentage of tissue volume occupied by the agent),"exit region of the CTO, 12 weeks",6%
